Among the data in article PMC12075841 are binding values, retold here.

No constants are given. Whether binding was seen depends on the method and setting. Binding seen in cells or lysates may run through a third protein. Some binding calls cover weakened binding; strength is not graded here.

The test concerns the target T1, Non-POU domain-containing octamer-binding protein (NONO), endogenous (human (endogenous in HCT116, MCF7, A549)) (UniProt Q15233).
T1 sequence: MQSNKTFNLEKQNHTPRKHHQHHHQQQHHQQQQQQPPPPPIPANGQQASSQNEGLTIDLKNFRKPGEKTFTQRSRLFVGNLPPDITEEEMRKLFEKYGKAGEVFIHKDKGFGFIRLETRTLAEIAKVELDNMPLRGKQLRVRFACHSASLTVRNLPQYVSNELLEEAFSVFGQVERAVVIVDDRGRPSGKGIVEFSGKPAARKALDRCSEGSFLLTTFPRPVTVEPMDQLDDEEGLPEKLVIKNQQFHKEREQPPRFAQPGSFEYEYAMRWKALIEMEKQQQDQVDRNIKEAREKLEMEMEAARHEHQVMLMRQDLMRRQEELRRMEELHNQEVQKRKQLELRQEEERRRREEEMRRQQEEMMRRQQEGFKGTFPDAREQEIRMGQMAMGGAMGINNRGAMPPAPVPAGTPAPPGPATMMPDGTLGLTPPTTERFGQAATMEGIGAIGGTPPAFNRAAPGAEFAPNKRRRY
Put plainly: co-IP; anti-NONO antibody (normal rabbit IgG as control) and protein A/G agarose, overnight at 4 °C, HCT116 whole cell lysates in Pierce IP lysis buffer; washes with 150 mM NaCl, 20 mM HEPES pH 7.4, 0.1% NP-40; for SFPQ and PSPC1 the cells were untreated or treated with OSMI4 (24 h) or siOGT (48 h).

B1: O-GlcNAc transferase (OGT) (enzyme, UniProt O15294 1-1046)
chain: MASSVGNVADSTEPTKRMLSFQGLAELAHREYQAGDFEAAERHCMQLWRQEPDNTGVLLLLSSIHFQCRRLDRSAHFSTLAIKQNPLLAEAYSNLGNVYKERGQLQEAIEHYRHALRLKPDFIDGYINLAAALVAAGDMEGAVQAYVSALQYNPDLYCVRSDLGNLLKALGRLEEAKACYLKAIETQPNFAVAWSNLGCVFNAQGEIWLAIHHFEKAVTLDPNFLDAYINLGNVLKEARIFDRAVAAYLRALSLSPNHAVVHGNLACVYYEQGLIDLAIDTYRRAIELQPHFPDAYCNLANALKEKGSVAEAEDCYNTALRLCPTHADSLNNLANIKREQGNIEEAVRLYRKALEVFPEFAAAHSNLASVLQQQGKLQEALMHYKEAIRISPTFADAYSNMGNTLKEMQDVQGALQCYTRAIQINPAFADAHSNLASIHKDSGNIPEAIASYRTALKLKPDFPDAYCNLAHCLQIVCDWTDYDERMKKLVSIVADQLEKNRLPSVHPHHSMLYPLSHGFRKAIAERHGNLCLDKINVLHKPPYEHPKDLKLSDGRLRVGYVSSDFGNHPTSHLMQSIPGMHNPDKFEVFCYALSPDDGTNFRVKVMAEANHFIDLSQIPCNGKAADRIHQDGIHILVNMNGYTKGARNELFALRPAPIQAMWLGYPGTSGALFMDYIITDQETSPAEVAEQYSEKLAYMPHTFFIGDHANMFPHLKKKAVIDFKSNGHIYDNRIVLNGIDLKAFLDSLPDVKIVKMKCPDGGDNADSSNTALNMPVIPMNTIAEAVIEMINRGQIQITINGFSISNGLATTQINNKAATGEEVPRTIIVTTRSQYGLPEDAIVYCNFNQLYKIDPSTLQMWANILKRVPNSVLWLLRFPAVGEPNIQQYAQNMGLPQNRIIFSPVAPKEEHVRRGQLADVCLDTPLCNGHTTGMDVLWAGTPMVTMPGETLASRVAASQLTCLGCLELIAKNRQEYEDIAVKLGTDLEYLKKVRGKVWKQRISSPLFNTKQYTMELERLYLQMWEHYAAGNKPDHMIKPVEVTESA
On to B1, for which the binding entry was “binds”.
